No constants are given. Whether binding was seen depends on the method and setting. Some results given as binding are weak or reduced against the parent protein; the word gives no strength. Tags and fused reporters may be left off the sequences shown.

In experiment [1] the target is T1, TNYL-RAW fused with human Fc (TNYL-RAW-Fc).
T1 sequence: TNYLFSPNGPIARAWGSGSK
Kind of experiment: ELISA; biotinylated TNYL-RAW captured on streptavidin-coated wells or TNYL-RAW-Fc captured on anti-Fc antibody; EphB4 AP in cell culture medium diluted in TBST added for 3 hours; AP activity read with pNPP; only the target purified. In general terms: An ELISA detects its analyte on a solid surface through an enzyme-linked reagent.

For the next experiment, the target named is T2, EphB4 Fc (UniProt P54761).
T2 sequence: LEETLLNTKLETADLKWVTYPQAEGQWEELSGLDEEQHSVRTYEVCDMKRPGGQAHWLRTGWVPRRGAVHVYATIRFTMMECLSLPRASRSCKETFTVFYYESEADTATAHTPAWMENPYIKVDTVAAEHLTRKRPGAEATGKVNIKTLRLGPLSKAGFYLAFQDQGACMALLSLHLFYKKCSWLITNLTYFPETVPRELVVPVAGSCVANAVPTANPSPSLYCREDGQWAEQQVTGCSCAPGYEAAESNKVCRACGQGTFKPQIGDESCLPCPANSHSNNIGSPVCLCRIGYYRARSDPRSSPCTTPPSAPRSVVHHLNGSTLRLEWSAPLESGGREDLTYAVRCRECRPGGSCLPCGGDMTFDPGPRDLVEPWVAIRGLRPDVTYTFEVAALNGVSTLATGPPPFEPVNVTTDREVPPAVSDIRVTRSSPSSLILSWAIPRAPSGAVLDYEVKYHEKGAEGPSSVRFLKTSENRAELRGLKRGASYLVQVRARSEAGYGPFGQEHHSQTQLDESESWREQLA
Kind of experiment: ELISA; competition: EphB4 Fc (1 µg/ml) on protein A-coated plates, 3 hours with 0.02 nM ephrin-B2 AP and different concentrations of the forms of TNYL-RAW; bound ephrin-B2 AP read with pNPP; both purified.

B1: mouse EphB4 AP (receptor, UniProt P54761 16-539)
chain: LEETLLNTKLETADLKWVTYPQAEGQWEELSGLDEEQHSVRTYEVCDMKRPGGQAHWLRTGWVPRRGAVHVYATIRFTMMECLSLPRASRSCKETFTVFYYESEADTATAHTPAWMENPYIKVDTVAAEHLTRKRPGAEATGKVNIKTLRLGPLSKAGFYLAFQDQGACMALLSLHLFYKKCSWLITNLTYFPETVPRELVVPVAGSCVANAVPTANPSPSLYCREDGQWAEQQVTGCSCAPGYEAAESNKVCRACGQGTFKPQIGDESCLPCPANSHSNNIGSPVCLCRIGYYRARSDPRSSPCTTPPSAPRSVVHHLNGSTLRLEWSAPLESGGREDLTYAVRCRECRPGGSCLPCGGDMTFDPGPRDLVEPWVAIRGLRPDVTYTFEVAALNGVSTLATGPPPFEPVNVTTDREVPPAVSDIRVTRSSPSSLILSWAIPRAPSGAVLDYEVKYHEKGAEGPSSVRFLKTSENRAELRGLKRGASYLVQVRARSEAGYGPFGQEHHSQTQLDESESWREQLA
On to B1, for which, in experiment [1], the binding result was “binds”. For TNYLFSPNGPIARAWGSGSK (Fc fusion) [TNYL-RAW fused with human Fc (TNYL-RAW-Fc)], the binding entry with EphB4 Fc is listed as “binds”.

For the origin of these results see article PMC3237458, “PEGylation Potentiates the Effectiveness of an Antagonistic Peptide That Targets the EphB4 Receptor with Nanomolar Affinity” (PLoS ONE, 2011).
